± gives the standard deviation of the averaged measurements. Small differences around the control level are noise.
Tests used:
Assay in all cases: level (log10 ratio to DMSO vehicle control); higher = higher biomarker level / cell amount than vehicle control
[1] = compound: O=C(O)C(F)(F)OC(F)(F)C(F)(F)OC(F)(F)C(=O)O [Perfluoro-3,6-dioxaoctane-1,8-dioic acid]; details: 2200 nM; in DMSO
Experimental: (§1)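 BioMAP Diversity Plus panel of 12 human primary cell co-culture systems (3C, 4H, LPS, SAg, BT, BF4T, BE3C, CASM3C, HDF3CGF, KF3CT, MyoF, Mphg). Compounds were added 1 h before stimulation and left for 24 h (MyoF 48 h; BT 72 h for soluble read-outs or 6 d for IgG). Biomarkers were read by ELISA, cytotoxicity by SRB, PBMC viability and proliferation by Alamar Blue. Each well value was divided by the mean of 8 DMSO control wells on the same plate and log10 transformed; duplicate blinded samples were tested at 4 concentrations.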

[2] = compound: O=S(=O)(Cl)C(F)(F)C(F)(F)C(F)(F)C(F)(F)C(F)(F)C(F)(F)C(F)(F)C(F)(F)F [Perfluoro-1-octanesulfonyl chloride]; details: 2200 nM; in DMSO
Experimental: as §1

[3] = compound: O=C(O)C(F)(F)OC(F)(F)C(F)(F)OC(F)(F)C(F)(F)C(F)(F)C(F)(F)F [Perfluoro-3,6-dioxadecanoic acid]; details: 2200 nM; in DMSO
Experimental: as §1

[4] = compound: OCCC(F)(F)C(F)(F)C(F)(F)C(F)(F)C(F)(F)C(F)(F)C(F)(F)C(F)(F)F [8:2 Fluorotelomer alcohol]; details: 2200 nM; in DMSO
Experimental: as §1

Perfluorobutanoic acid = compound: O=C(O)C(F)(F)C(F)(F)C(F)(F)F [Perfluorobutanoic acid]; details: 2200 nM; in DMSO
Experimental: as §1

[5] = compound: C=C(C)C(=O)OCC(F)(F)C(F)(F)C(F)(F)F [2,2,3,3,4,4,4-Heptafluorobutyl methacrylate]; details: 2200 nM; in DMSO
Experimental: as §1

[6] = compound: FC(F)(F)C(F)(F)C(F)(F)C(F)(F)C(F)(F)C(F)(F)C(F)(F)I [1-Iodopentadecafluoroheptane]; details: in DMSO
Experimental: as §1

Perfluorooctanamide = compound: NC(=O)C(F)(F)C(F)(F)C(F)(F)C(F)(F)C(F)(F)C(F)(F)C(F)(F)F [Perfluorooctanamide]; details: 2200 nM; in DMSO
Experimental: as §1

[7] = compound: O=C(O)C(F)(F)C(F)(F)C(F)(F)C(F)(F)C(F)(F)C(F)(F)C(F)(F)C(F)F [9-H-Perfluorononanoic acid]; details: 2200 nM; in DMSO
Experimental: as §1

[8] = compound: O=C(O)C(F)(F)C(F)(F)OC(F)(F)F [Perfluoro-3-methoxypropanoic acid]; details: 2200 nM; in DMSO
Experimental: as §1

[9] = compound: FC(F)C(F)(F)COCC1CO1 [((2,2,3,3-Tetrafluoropropoxy)methyl)oxirane]; details: 2200 nM; in DMSO
Experimental: as §1

[10] = compound: C=CC(=O)OCC(F)(F)C(F)(F)C(F)(F)C(F)(F)COC(=O)C=C [1H,1H,6H,6H-Perfluorohexane-1,6-diol diacrylate]; details: 2200 nM; in DMSO
Experimental: as §1

[11] = compound: O=P(O)(O)CCC(F)(F)C(F)(F)C(F)(F)C(F)(F)C(F)(F)C(F)(F)C(F)(F)C(F)(F)F [((Perfluorooctyl)ethyl)phosphonic acid]; details: 2200 nM; in DMSO
Experimental: as §1

Perfluoropropanoic acid = compound: O=C(O)C(F)(F)C(F)(F)F [Perfluoropropanoic acid]; details: 2200 nM; in DMSO
Experimental: as §1

[12] = compound: O=C(O)C=CC(F)(C(F)(F)F)C(F)(F)F [3-(Perfluoroisopropyl)-2-propenoic acid]; details: in DMSO
Experimental: as §1

[13] = compound: OCC(F)(F)C(F)(F)C(F)(F)C(F)(F)C(F)(F)C(F)(F)C(F)(F)C(F)(F)C(F)(F)C(F)(F)C(F)(F)F [11:1 Fluorotelomer alcohol]; details: in DMSO
Experimental: as §1

[14] = compound: FC(F)(F)C(F)(F)C(F)(F)C(F)(F)C(F)(F)C(F)(F)C(F)(F)CCI [1-Iodo-1H,1H,2H,2H-perfluorononane]; details: in DMSO
Experimental: as §1

Perfluoroundecanoic acid = compound: O=C(O)C(F)(F)C(F)(F)C(F)(F)C(F)(F)C(F)(F)C(F)(F)C(F)(F)C(F)(F)C(F)(F)C(F)(F)F [Perfluoroundecanoic acid]; details: in DMSO
Experimental: as §1

Test System | level (log10) [1] | level (log10) [2] | level (log10) [3] | level (log10) [4] | level (log10) (Perfluorobutanoic acid) | level (log10) [5] | level (log10) ([6]; 740 nM) | level (log10) ([6]; 2200 nM) | level (log10) ([6]; 6700 nM) | level (log10) ([6]; 20000 nM) | level (log10) (Perfluorooctanamide) | level (log10) [7] | level (log10) [8] | level (log10) [9] | level (log10) [10] | level (log10) [11] | level (log10) (Perfluoropropanoic acid) | level (log10) ([12]; 2200 nM) | level (log10) ([12]; 6700 nM) | level (log10) ([12]; 20000 nM) | level (log10) ([12]; 60000 nM) | level (log10) ([13]; 370 nM) | level (log10) ([13]; 1100 nM) | level (log10) ([13]; 3300 nM) | level (log10) ([13]; 10000 nM) | level (log10) ([14]; 740 nM) | level (log10) ([14]; 2200 nM) | level (log10) ([14]; 6700 nM) | level (log10) ([14]; 20000 nM) | level (log10) (Perfluoroundecanoic acid; 740 nM) | level (log10) (Perfluoroundecanoic acid; 2200 nM)
BF4T:MMP-1 | 0.009 ± 0.017 | 0.0115 ± 0.023 | -0.019 ± 0.014 | 0.0105 ± 0.022 | -0.0035 ± 0.03 | -0.003 ± 0.02 | -0.014 ± 0.014 | -0.0245 ± 0.036 | -0.0055 ± 0.018 | 0.0005 ± 0.0035 | 0.0005 ± 0.00071 | 0.0225 ± 0.049 | 0.0135 ± 0.026 | 0.014 ± 0.0099 | 0.0275 ± 0.049 | 0.0075 ± 0.019 | 0.008 ± 0.018 | 0.005 ± 0.014 | -0.0055 ± 0.012 | -0.0055 ± 0.0035 | 0.017 ± 0.03 | -0.0055 ± 0.013 | -0.0095 ± 0.005 | -0.01 | -0.0015 ± 0.016 | -0.0055 ± 0.05 | -0.013 ± 0.03 | 0.001 ± 0.035 | 0.016 ± 0.033 | -0.0185 ± 0.011 | -0.0155 ± 0.042
CASM3C:M-CSF | 0.041 ± 0.057 | 0.0075 ± 0.026 | -0.0025 ± 0.0064 | -0.0025 ± 0.033 | 0.011 ± 0.0014 | 0.0235 ± 0.015 | -0.0165 ± 0.015 | -0.014 ± 0.024 | -0.0285 ± 0.019 | 0.0225 ± 0.052 | 0.005 ± 0.0014 | -0.0025 ± 0.066 | 0.0245 ± 0.043 | -0.0125 ± 0.044 | 0.0395 ± 0.086 | 0.039 ± 0.034 | -0.025 ± 0.058 | 0.0195 ± 0.037 | -0.0195 ± 0.0078 | -0.0175 ± 0.011 | 0.009 ± 0.034 | 0.007 ± 0.048 | -0.026 ± 0.044 | 0.006 ± 0.031 | 0.017 ± 0.0099 | 0.0065 ± 0.023 | -0.007 ± 0.013 | -0.0035 ± 0.0078 | 0.0125 ± 0.028 | 0.001 ± 0.068 | 0.013 ± 0.016
MyoF:PAI-I | 0.0025 ± 0.03 | -0.023 ± 0.02 | 0.001 ± 0.0071 | 0.0045 ± 0.021 | -0.002 ± 0.0099 | -0.0075 ± 0.012 | -0.003 ± 0.025 | -0.013 ± 0.024 | -0.013 ± 0.016 | -0.075 | -0.009 ± 0.0057 | 0.0095 ± 0.016 | 0.0045 ± 0.016 | -0.01 ± 0.0028 | -0.0135 ± 0.011 | -0.0055 ± 0.005 | -0.008 ± 0.0057 | -0.0025 ± 0.025 | 0.0125 ± 0.0078 | 0.007 ± 0.0099 | 0.009 ± 0.0014 | 0.005 ± 0.0014 | 0.009 ± 0.0042 | 0.014 ± 0.013 | 0.0205 ± 0.0064 | 0.0005 ± 0.023 | 0.0105 ± 0.013 | -0.002 ± 0.02 | -0.0025 ± 0.0035 | 0.015 ± 0.0099 | 0.0095 ± 0.0035
3C:CD62E/E-Selectin | 0.013 ± 0.0085 | -0.0125 ± 0.019 | 0.0195 ± 0.016 | 0.0045 ± 0.046 | -0.007 ± 0.011 | 0.002 ± 0.042 | 0.0165 ± 0.0021 | -0.0115 ± 0.005 | -0.0085 ± 0.00071 | -0.003 ± 0.011 | -0.0005 ± 0.013 | -0.012 ± 0.0042 | 0.0195 ± 0.0078 | 0.0185 ± 0.00071 | -0.0005 ± 0.0092 | -0.0035 ± 0.015 | 0 ± 0.033 | 0.0015 ± 0.0078 | -0.009 ± 0.013 | -0.031 ± 0.0085 | -0.0155 ± 0.013 | 0 ± 0.031 | -0.0125 ± 0.013 | 0.008 ± 0.0028 | 0.0155 ± 0.0078 | -0.0045 ± 0.029 | -0.01 | -0.0135 ± 0.0035 | -0.028 ± 0.014 | -0.0225 ± 0.023 | -0.021 ± 0.014
LPS:CD69 | 0.004 ± 0.025 | -0.02 ± 0.071 | -0.0035 ± 0.0035 | -0.001 ± 0.1 | -0.0155 ± 0.091 | 0.0015 ± 0.0035 | -0.0165 ± 0.11 | -0.051 ± 0.035 | -0.0105 ± 0.033 | 0.037 ± 0.0057 | -0.002 ± 0.021 | -0.002 ± 0.0028 | 0.003 ± 0.0085 | -0.0045 ± 0.0021 | -0.0105 ± 0.026 | -0.0325 ± 0.011 | 0.021 ± 0.03 | -0.0425 ± 0.028 | -0.0365 ± 0.025 | -0.0375 ± 0.00071 | -0.0255 ± 0.023 | 0.012 ± 0.023 | 0.006 ± 0.021 | 0.004 | -0.003 ± 0.031 | 0.0115 ± 0.016 | -0.0225 ± 0.021 | -0.0145 ± 0.026 | -0.0065 ± 0.063 | 0.062 ± 0.016 | -0.0005 ± 0.0035
BE3C:CXCL9/MIG | 0.005 ± 0.035 | 0.0055 ± 0.012 | -0.001 ± 0.027 | 0.0035 ± 0.012 | -0.0005 ± 0.019 | 0.0015 ± 0.0092 | 0.009 ± 0.0099 | 0.009 ± 0.024 | -0.0035 ± 0.021 | 0.003 ± 0.013 | 0.021 ± 0.011 | -0.007 ± 0.0042 | 0.013 ± 0.02 | -0.009 ± 0.018 | 0.0105 ± 0.00071 | 0.0175 ± 0.018 | -0.003 | 0.0125 ± 0.033 | 0.0135 ± 0.015 | 0.016 ± 0.017 | 0.0235 ± 0.013 | 0.001 ± 0.011 | -0.0195 ± 0.00071 | -0.03 ± 0.0028 | -0.0385 ± 0.022 | -0.0065 ± 0.005 | -0.001 ± 0.0028 | -0.0085 ± 0.0035 | -0.0015 ± 0.0092 | 0.014 ± 0.0099 | 0.013 ± 0.0042
lMphg:sIL-10 | -0.0565 ± 0.061 | 0.0245 ± 0.11 | -0.0355 ± 0.0078 | -0.056 ± 0.0085 | 0.0485 ± 0.019 | 0.001 ± 0.0085 | -0.0435 ± 0.025 | -0.0455 ± 0.03 | 0.004 ± 0.081 | -0.0995 ± 0.021 | 0.0285 ± 0.04 | -0.0175 ± 0.0064 | -0.003 ± 0.044 | -0.0155 ± 0.04 | -0.0115 ± 0.0092 | -0.007 ± 0.021 | -0.0265 ± 0.057 | -0.003 ± 0.0071 | -0.055 ± 0.064 | -0.048 ± 0.017 | -0.082 ± 0.0071 | 0.015 ± 0.0085 | -0.0255 ± 0.069 | -0.0875 ± 0.066 | -0.216 ± 0.082 | -0.0445 ± 0.073 | -0.0395 ± 0.025 | -0.0685 ± 0.00071 | -0.072 ± 0.021 | -0.022 ± 0.031 | 0.0125 ± 0.098

— the supplement of paper PMC10331698
